Assay [1] concerns the target T1, HNE cleaved calprotectin (HNE-generated fragment NBH-222 carrying the N-terminus neo-epitope CPa9-HNE) (Homo sapiens).
T1 sequence (peptide): KLGHPDTLNQGEFKELV
As to the kind of experiment: competitive ELISA (CPa9-HNE assay) on in vitro cleavage samples, FIG. 2C.

Assay [2] shares this target. Kind of assay: competitive ELISA (CPa9-HNE assay). (In general: ELISA stands for enzyme-linked immunosorbent assay.)

These are yes or no findings as the source states them, for the method shown. Some results given as binding are weak or reduced against the parent protein; the word gives no strength.

B1: CPa9-HNE antibody (antibody, mouse IgG1, kappa, V domains shown)
VH: QVQLQQSGPELVKPGASVKMSCKASGYTFTDHVINWVRQRTGQGLEWIGEIYPGSGSTYYNEKFKGKATLTADKSSNTAYMQLSSLTSEDSAVYFCAWFAYWGQGTLVTVSA
VL: DIVMTQSPSSLSVSAGEKVTMSCKSSQSLLNSGNQKNYLAWYQQKPGQPPKLLIYGASTRESGVPDRFTGSGSGTDFTLTISSVQAEDLAVYYCLNDHSYPYTFGGGTKLEIKR
On to B1, for which the binding entry in assay [1] and in assay [2] was “binds” throughout.

The record behind these values is patent publication US20230184787A1.
